Results: patent US20250161319A1, “USE OF HPK1 INHIBITOR IN TREATMENT OF INTERFERON-RELATED DISEASES” (priority 2022, published 2025)
At least one structure is not confirmed: it was looked up by name or label, or the drawing left a doubt. Some entries repeat one wording, which the source may state once for all of them.

Assays:
[1] = test system: IFN-β Luciferase Reporter in HEK293 cells overexpressing HPK1; experiment: Restoration of HPK1-inhibited IFN-β expression, IFN-β Luciferase Reporter in HEK293 cells stimulated with SeV; type: cell-based; conditions: HEK293, SeV stimulation; for restoration of HPK1-inhibited IFN-β expression (IFN-β Luciferase activity): 0.5 μM compound
[2] = test system: Mouse Hepatitis Virus (MHV); experiment: MHV-infected C57 mouse model; type: in vivo, C57 mice
[3] = test system: Feline Infectious Peritonitis; experiment: Animal clinical trial in cats with Feline Infectious Peritonitis; type: in vivo; conditions: three cats overall, 20 days, 1.5 mg/kg twice a day via injection
From the text: Therefore, the inventors hypothesized that HPK1 inhibitors might have therapeutic effects on Feline Infectious Peritonitis. To validate this hypothesis, the inventors conducted an animal clinical trial. Three animals were included in the experiment, all of them suffered from Feline Infectious Peritonitis, aged between 5-12 months, one was female and the other two were male (Table 4).

[4] = oral 5 mg/kg, 20 mg/kg twice a day

| SMILES | restoration of HPK1-inhibited IFN-β expression (IFN-β Luciferase activity) [1] | also measured |
| --- | --- | --- |
| Cn1cccc1-c1cc2cc(NC(=O)C3C[C@@H]3F)ncc2c(N)c1F (stereo partly shown) [Compound C6] | followed by | – |
| CN1CCN(c2ccc(Nc3ncc4cccc(O[C@H]5CC[C@H](O)CC5)c4n3)cc2)CC1 [Compound C3] | better activity | – |
| CN1CCC(n2cc(Nc3ncc4cccc(O[C@H]5CC[C@H](N)CC5)c4n3)cn2)CC1 [Compound C1] | followed by | serum Alanine aminotransferase, dose dependence [2, 4]: dose-dependent inhibiting effect; viral titre in the liver, dose dependence [2, 4]: dose-dependent inhibiting effect; viral titre in the liver (qPCR) ([2]; oral 10 mg/kg, BID, three days after virus infection): effectively reduced; ratio of ALB/GLB [3]: increase |
| CN1CCN(c2ccc(Nc3ncc4cccc(O[C@H]5CC[C@@H](O)CC5)c4n3)cc2)CC1 [Compound C4] | better activity | – |
| CN1CCC(n2cc(Nc3ncc4cccc(O[C@H]5CC[C@@H](N)CC5)c4n3)cn2)CC1 [Compound C2] | better activity | dose dependence of restoration of HPK1-inhibited IFN-β expression [1]: dosage-dependent restoration |
